# According to PubChem BioAssay AID1347076 (National Center for Advancing Translational Sciences (NCATS), 2019):
# Out of some 400,000 compounds screened, about 13,000 (3.2%) were called active. Inconclusive results, whose numbers are uncertain, are shown with a selection of clear calls. The call rests on the fitted dose curve; in most records, active means well fitted cell-killing curve with a large enough effect; inconclusive means small, poorly fitted or top-dose-only effect, or effect the other way; inactive means flat fitted curve, though single readings scatter. Potencies beside an inconclusive call are fits to weak or partial responses and may not hold up.
# Assay: qHTS assay for MDR1-selective chemotherapeutics: Primary screen using the drug-selected MDR subline cells KB-V1; further: nearly all actives have a fitted effect of over 60% in size
# Conditions: KB-V1 MDR cells viability, CellTiter-Glo, 72 h; activity change, negative = cytotoxicity: at 46.1 µM (top of the series)
# How it was run: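 Drug-selected KB-V1 cells, grown in DMEM lacking phenol red with 10% FBS, receive compound titrations; after three days at 37 degrees C, surviving cell ATP is quantified by CellTiter-Glo luminescence and responses normalized and curve-fitted.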
# On the % scale 0 is the no-effect control and ±100 the full control effect; potency means the concentration at half of the fitted maximal effect.
Compound,Potency,"activity change, negative = cytotoxicity"
Cc1ccccc1NS(=O)(=O)CCCCC(Cl)(Cl)Cl,"inconclusive: 14.6 µM [cytotoxic, partial curve]",
CCOC(=O)c1sc(NC(=O)CSc2nc3c(cc2C#N)CCCCC3)c(C#N)c1C,inactive,
O=C(c1ccc(S(=O)(=O)N2CCOCC2)cc1)N1CCN(S(=O)(=O)c2ccc(Cl)s2)CC1,"inconclusive: 13 µM [cytotoxic, single point]",
CC(C)OCCCNC(=O)CCCn1c(=O)[nH]c2ccsc2c1=O,"inconclusive: 9.2 µM [rising, partial curve, poor fit]",
Nc1cc2c(cc1C(=O)c1ccccc1)OCCO2,inactive,
CCC(C)Nc1nc(N)c([N+](=O)[O-])c(Nc2ccccc2OC)n1 (stereo unspecified),"inconclusive: 14.6 µM [cytotoxic, single point]",
Cc1cccc(OCCOC(=O)Nc2ccccc2)c1,"inconclusive: 16.4 µM [cytotoxic, single point]",
CCc1ccc(N(CC(=O)NC2CC2)S(=O)(=O)c2ccc(C)cc2)cc1,"inconclusive: 29.1 µM [cytotoxic, single point]",
Cc1nc2c(C(=O)NCc3ccc(F)cc3)c[nH]n2c(=O)c1Cl,inactive,
CN(C)CCCN(C(=O)CCOc1ccccc1)c1nc2c(F)cccc2s1,inactive,
Cc1ccccc1OCCSc1nc2ncnc(N)c2[nH]1,"inconclusive: 23.1 µM [cytotoxic, single point]",
CCC(C)NC(=O)C1CCN(c2nc(OC)nc(OC)n2)CC1 (stereo unspecified),"inconclusive: 13 µM [cytotoxic, partial curve]",
CCOc1ccc(NC(=O)Nc2nnc(CC)s2)cc1,inactive,
O=CN1CCN(C(=O)C(=O)c2cn(CC(=O)N3CCCCC3)c3ccccc23)CC1,inactive,
CC(COc1ccccc1)N1CCC(CO)(CCc2ccccc2)CC1 (stereo unspecified),"inconclusive: 16.4 µM [cytotoxic, single point]",
Cc1cc(C)cc(Nc2cc(C(=O)NCCCN(Cc3ccccc3)C(C)C)c3ccccc3n2)c1,"inconclusive: 20.6 µM [cytotoxic, partial curve, poor fit]",
CCn1cc(CNc2nc3nonc3nc2N2CCCCC2)cn1,inactive,
O=C(CNc1ccccc1-c1ccccc1)NCc1ccccc1,active: 16.4 µM,
COC(=O)CC1Oc2ccc(F)cc2-n2cc(-c3ccc(Cl)cc3)nc21 (stereo unspecified),inactive,
CC(=O)Nc1ccc(NS(=O)(=O)c2ccc3c(c2)CC(C)N3C(=O)C2CCC2)cc1 (stereo unspecified),inactive,
O=S(=O)(NCCc1ccncc1)c1ccc(S(=O)(=O)N2CCCCCC2)cc1,active: 18.4 µM,
CN(CC(=O)Nc1c(Cl)cccc1Cl)C(=O)Cc1cccs1,inactive,
CCOC(=O)c1c(C)[nH]c(C(=O)OCC(=O)Nc2cc(C)nn2-c2ccccc2)c1C,"inconclusive: 9.2 µM [cytotoxic, partial curve]",
COc1ccc(-c2cc(C(F)(F)F)nc(-n3ccnc3C)n2)cc1,active: 20.6 µM,

# 5 compounds from above, sorted by number of heavy atoms, descending.
Compound,Potency,"activity change, negative = cytotoxicity"
CCOC(=O)c1c(C)[nH]c(C(=O)OCC(=O)Nc2cc(C)nn2-c2ccccc2)c1C,"inconclusive: 9.2 µM [cytotoxic, partial curve]",
CC(=O)Nc1ccc(NS(=O)(=O)c2ccc3c(c2)CC(C)N3C(=O)C2CCC2)cc1 (stereo unspecified),inactive,
CC(COc1ccccc1)N1CCC(CO)(CCc2ccccc2)CC1 (stereo unspecified),"inconclusive: 16.4 µM [cytotoxic, single point]",
CC(C)OCCCNC(=O)CCCn1c(=O)[nH]c2ccsc2c1=O,"inconclusive: 9.2 µM [rising, partial curve, poor fit]",
Cc1ccccc1NS(=O)(=O)CCCCC(Cl)(Cl)Cl,"inconclusive: 14.6 µM [cytotoxic, partial curve]",

# Continuation:

Compound,Potency,"activity change, negative = cytotoxicity"
CC(C)(C)NC(=O)CN(Cc1cccs1)C(=O)C1COc2ccccc2O1 (stereo unspecified),inactive,
CCn1c(C)nc2cc(C(=O)NNC(=S)NC(=O)c3ccccc3)ccc21,"inconclusive: 3.66 µM [cytotoxic, full curve]",
CCN(Cc1ccccc1)C(=O)Cn1c(=O)n(-c2ccc(F)c(Cl)c2)c(=O)c2sc3ccccc3c21,"inconclusive: 0.731 µM [cytotoxic, full curve, poor fit]",
Cc1cccc(C)c1OCCSc1nc2ccccc2n1CC(=O)O,"inconclusive: 9.2 µM [rising, partial curve, poor fit]",
CCC1CCCCN1CCCNC(=O)c1ccc(CS(=O)(=O)c2ccccc2C)o1 (stereo unspecified),"inconclusive: 32.6 µM [rising, partial curve, poor fit]",
COC(=O)CCC(=O)N1CCCC(C(=O)c2ccc(Cl)cc2C)C1 (stereo unspecified),inactive,
CC(CC(=O)Nc1ccc2c(c1)c(=O)n(C)n2Cc1ccc(Cl)cc1)C(F)(F)F (stereo unspecified),inactive,
CCN(CC)S(=O)(=O)c1ccc(-c2nnc(SCC(=O)N3c4ccccc4CC3C)n2CC)cc1 (stereo unspecified),active: 20.6 µM,
O=C(c1ccc(Cl)c(S(=O)(=O)N2CCCCCC2)c1)N1CCCC1,inactive,
CCN(CC)c1ccc(/C=N/Nc2nc(C)cc(=O)[nH]2)cc1,"inconclusive: 11.6 µM [cytotoxic, partial curve]",
Cc1cccc(-c2nc(CCNC(=O)c3ccco3)cs2)c1,"inconclusive: 18.4 µM [cytotoxic, single point]",
COc1ccc(NC(=O)CN2CCCN(S(=O)(=O)c3ccc(Br)cc3)CC2)c(OC)c1,"inconclusive: 1.84 µM [cytotoxic, full curve]",
CCOC(=O)Cc1csc(NS(=O)(=O)c2ccc(F)cc2)n1,"inconclusive: 16.4 µM [rising, partial curve, poor fit]",
Cc1nn(-c2ccccc2)c2ncc(C(=O)c3cc(Cl)ccc3O)cc12,"inconclusive: 18.4 µM [cytotoxic, single point]",
CCCc1cc(=O)[nH]c(SCc2ccccc2)n1,inactive,
COc1cccc(/C=N/NC(=O)c2nc(-c3ccccc3)cc(-c3ccccc3)n2)c1O,"inconclusive: 3.66 µM [cytotoxic, partial curve, poor fit]",
Cc1cc(-c2c(C)[nH]n(-c3ccc(Cl)cc3)c2=O)n[nH]1,"inconclusive: 6.51 µM [cytotoxic, partial curve]",
Cc1ccc(NC(=O)c2oc3ccc(S(=O)(=O)N4CCCCC4)cc3c2C)cc1C,"inconclusive: 29.1 µM [rising, single point]",
CC(NC(=O)c1cccnc1)C(c1cccs1)N1CCN(C)CC1 (stereo unspecified),inactive,
O=C(Nc1ncc(Cc2cccc(C(F)(F)F)c2)s1)C1CCCO1 (stereo unspecified),"inconclusive: 23.1 µM [cytotoxic, single point]",
COc1ccc(N(CC(=O)Nc2ccccc2C(=O)N2CCCC2)S(=O)(=O)c2ccccc2)cc1,"inconclusive: 2.91 µM [cytotoxic, full curve]",
COc1ccc(-c2cc(C(F)(F)F)nc(SCC(=O)N(C)Cc3ccccc3)n2)cc1OC,"inconclusive: 29.1 µM [cytotoxic, single point]",
COc1ccc(N(C(=O)c2ccccc2F)S(=O)(=O)c2ccc3c(c2)n(C)c(=O)n3C)cc1,inactive,
O=C(CCC(=O)N1CCCC1)N1CCCC1,"inconclusive: 29.1 µM [rising, single point]",

Compound,Potency,"activity change, negative = cytotoxicity"
Cc1ccc(OCC(=O)N/N=C\c2c(C)n(C)c3ccccc23)c([N+](=O)[O-])c1,"inconclusive: 18.4 µM [cytotoxic, single point]",
O=C(Cc1ccccc1[N+](=O)[O-])NC1CCN(Cc2ccccc2)CC1,inactive,
Cn1ccc(-c2cc(C(=O)O)c3ccccc3n2)n1,"inconclusive: 29.1 µM [rising, single point]",
COc1ccccc1NC(=S)NCCc1ccc(F)cc1,inactive,
CCOc1cc(/C=N/NC(=O)c2ccc(CN3CCOCC3)cc2)ccc1OCc1ccccc1,active: 2.31 µM,
COc1ccc(CNc2oc(-c3ccc(COc4ccc(Cl)cc4)o3)nc2C#N)cc1,inactive,
Cc1ccc(C)c(CN2C(=O)c3ccccc3S(=O)c3ccc(C(=O)N4CCC(C)CC4)cc32)c1 (stereo unspecified),inactive,
COc1ccc(-c2cc(-c3cccs3)c(C#N)c(SCC(=O)NCc3ccccc3OC)n2)cc1,"inconclusive: 29.1 µM [cytotoxic, single point]",
CCN1c2ccccc2-c2nc(SCC(=O)Nc3cccc(C(F)(F)F)c3)ncc2S1(=O)=O,inactive,
CCCc1nnc(NC(=O)CCC(=O)NCc2ccccc2)s1,"inconclusive: 29.1 µM [rising, single point]",
Cc1ccc(S(=O)(=O)N2[C@@H](c3cccc(Cl)c3)C(C(=O)O)=CC[C@H]2c2cccc(Cl)c2)cc1,"inconclusive: 29.1 µM [cytotoxic, single point]",
c1cc(-c2cnc3cccnn23)c2cccnc2c1,inactive,
COc1ccccc1CNC(=O)CN1C(=O)NC(c2ccccc2)(c2ccc(C)c(C)c2)C1=O (stereo unspecified),"inconclusive: 29.1 µM [cytotoxic, single point]",
COc1ccc(CNC(=O)c2c(Nc3ccc(OC)cc3OC)sc(C(=O)c3ccc(Cl)cc3)c2N)cc1,"inconclusive: 7.31 µM [rising, partial curve, poor fit]",
CCc1ccccc1N(C(=O)c1snc(C(N)=O)c1N)C(C(=O)NCC1CCCO1)c1c[nH]c2ccccc12 (stereo unspecified),"inconclusive: 16.4 µM [cytotoxic, single point]",
CCCOc1ccccc1N/C(=N/c1nc(C)cc(C)n1)NC(=O)COc1ccc(OC)cc1,inactive,
CCOC(=O)c1c(-c2ccccc2Cl)csc1NC(=O)CSc1nc(C)cc(=O)[nH]1,"inconclusive: 14.6 µM [cytotoxic, partial curve]",
Cc1ccc(C(c2nnnn2C(C)(C)C)N(Cc2ccco2)Cc2cccs2)cc1 (stereo unspecified),"inconclusive: 20.6 µM [cytotoxic, single point]",
O=C(O)c1ccccc1C(=O)Nc1ccc(Br)c(C(F)(F)F)c1,inactive,
COc1ccc(C(=O)NC(=C(Cl)Cl)S(=O)(=O)c2ccc(C)cc2)cc1,,inconclusive: 30.2%
COc1cc(C(=O)Oc2ccccc2/C=N/NC(=O)c2ccc(C)c(Cl)c2)cc(OC)c1OC,"inconclusive: 4.61 µM [cytotoxic, full curve]",
CCN(CC)C(=O)CSC1=Nc2ccccc2C2=NC(Cc3c[nH]c4ccccc34)C(=O)N12 (stereo unspecified),"inconclusive: 20.6 µM [cytotoxic, single point]",
